Laboratory results taken from the supplement of paper PMC10849652.
The other results are listed elsewhere or left out.

By UniProt entry, the sequences of proteins in these tests, tags left out. Where a name states a change or a piece, a line headed by the entry shows the natural chain unless it says otherwise.
UniProt O75911: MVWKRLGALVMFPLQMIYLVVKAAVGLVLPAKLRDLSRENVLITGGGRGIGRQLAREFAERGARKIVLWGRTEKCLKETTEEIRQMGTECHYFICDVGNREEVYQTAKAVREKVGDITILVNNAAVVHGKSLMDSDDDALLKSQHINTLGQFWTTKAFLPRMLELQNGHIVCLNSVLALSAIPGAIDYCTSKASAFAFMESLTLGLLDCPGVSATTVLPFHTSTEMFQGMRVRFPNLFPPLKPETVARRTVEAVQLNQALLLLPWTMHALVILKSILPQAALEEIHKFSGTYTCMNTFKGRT
UniProt Q9NVP1: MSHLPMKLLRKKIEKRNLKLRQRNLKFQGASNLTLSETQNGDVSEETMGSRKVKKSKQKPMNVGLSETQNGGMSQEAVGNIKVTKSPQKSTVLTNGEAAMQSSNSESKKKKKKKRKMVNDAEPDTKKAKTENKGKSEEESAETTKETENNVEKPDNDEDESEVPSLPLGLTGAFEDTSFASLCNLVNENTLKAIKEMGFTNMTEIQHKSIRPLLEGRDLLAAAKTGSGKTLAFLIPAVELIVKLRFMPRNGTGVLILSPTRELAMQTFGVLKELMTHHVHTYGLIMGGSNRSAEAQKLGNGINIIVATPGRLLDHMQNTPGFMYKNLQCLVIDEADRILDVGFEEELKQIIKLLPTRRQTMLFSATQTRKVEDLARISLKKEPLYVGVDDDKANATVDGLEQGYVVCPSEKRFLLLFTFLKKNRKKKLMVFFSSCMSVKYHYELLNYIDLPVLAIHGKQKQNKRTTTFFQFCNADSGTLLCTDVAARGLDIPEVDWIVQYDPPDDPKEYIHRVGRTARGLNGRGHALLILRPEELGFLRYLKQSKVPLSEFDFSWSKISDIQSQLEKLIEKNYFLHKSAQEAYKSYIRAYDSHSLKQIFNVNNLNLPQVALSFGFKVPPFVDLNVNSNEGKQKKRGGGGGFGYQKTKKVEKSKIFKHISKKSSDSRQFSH
UniProt Q15392: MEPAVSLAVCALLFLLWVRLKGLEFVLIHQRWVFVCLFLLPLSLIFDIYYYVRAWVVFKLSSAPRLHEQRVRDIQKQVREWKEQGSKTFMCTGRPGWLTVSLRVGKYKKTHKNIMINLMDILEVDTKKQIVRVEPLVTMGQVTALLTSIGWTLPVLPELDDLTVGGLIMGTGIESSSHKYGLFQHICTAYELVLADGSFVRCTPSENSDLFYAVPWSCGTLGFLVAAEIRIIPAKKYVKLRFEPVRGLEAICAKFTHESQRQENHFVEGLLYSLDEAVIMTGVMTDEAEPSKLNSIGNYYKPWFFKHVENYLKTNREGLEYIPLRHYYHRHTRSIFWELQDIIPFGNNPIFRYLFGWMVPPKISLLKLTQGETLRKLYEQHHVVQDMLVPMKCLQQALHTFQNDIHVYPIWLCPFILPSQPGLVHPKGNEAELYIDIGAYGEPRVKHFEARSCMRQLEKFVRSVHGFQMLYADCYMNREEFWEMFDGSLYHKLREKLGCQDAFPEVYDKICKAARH
UniProt P49366: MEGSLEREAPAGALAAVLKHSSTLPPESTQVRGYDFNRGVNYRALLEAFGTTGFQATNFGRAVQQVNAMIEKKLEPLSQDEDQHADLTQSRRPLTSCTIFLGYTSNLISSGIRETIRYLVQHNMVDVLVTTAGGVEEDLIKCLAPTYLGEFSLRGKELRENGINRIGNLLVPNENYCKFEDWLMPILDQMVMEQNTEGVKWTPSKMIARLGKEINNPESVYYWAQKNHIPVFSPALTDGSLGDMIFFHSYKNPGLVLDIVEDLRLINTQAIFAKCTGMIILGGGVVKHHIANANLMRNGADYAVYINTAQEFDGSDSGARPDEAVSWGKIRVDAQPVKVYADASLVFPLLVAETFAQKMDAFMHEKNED
UniProt Q9BSY9: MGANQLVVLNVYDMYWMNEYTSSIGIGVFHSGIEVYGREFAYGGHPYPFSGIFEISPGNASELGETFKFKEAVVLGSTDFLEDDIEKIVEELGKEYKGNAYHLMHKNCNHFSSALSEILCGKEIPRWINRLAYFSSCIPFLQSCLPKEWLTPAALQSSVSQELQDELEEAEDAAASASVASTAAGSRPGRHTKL
UniProt O60231: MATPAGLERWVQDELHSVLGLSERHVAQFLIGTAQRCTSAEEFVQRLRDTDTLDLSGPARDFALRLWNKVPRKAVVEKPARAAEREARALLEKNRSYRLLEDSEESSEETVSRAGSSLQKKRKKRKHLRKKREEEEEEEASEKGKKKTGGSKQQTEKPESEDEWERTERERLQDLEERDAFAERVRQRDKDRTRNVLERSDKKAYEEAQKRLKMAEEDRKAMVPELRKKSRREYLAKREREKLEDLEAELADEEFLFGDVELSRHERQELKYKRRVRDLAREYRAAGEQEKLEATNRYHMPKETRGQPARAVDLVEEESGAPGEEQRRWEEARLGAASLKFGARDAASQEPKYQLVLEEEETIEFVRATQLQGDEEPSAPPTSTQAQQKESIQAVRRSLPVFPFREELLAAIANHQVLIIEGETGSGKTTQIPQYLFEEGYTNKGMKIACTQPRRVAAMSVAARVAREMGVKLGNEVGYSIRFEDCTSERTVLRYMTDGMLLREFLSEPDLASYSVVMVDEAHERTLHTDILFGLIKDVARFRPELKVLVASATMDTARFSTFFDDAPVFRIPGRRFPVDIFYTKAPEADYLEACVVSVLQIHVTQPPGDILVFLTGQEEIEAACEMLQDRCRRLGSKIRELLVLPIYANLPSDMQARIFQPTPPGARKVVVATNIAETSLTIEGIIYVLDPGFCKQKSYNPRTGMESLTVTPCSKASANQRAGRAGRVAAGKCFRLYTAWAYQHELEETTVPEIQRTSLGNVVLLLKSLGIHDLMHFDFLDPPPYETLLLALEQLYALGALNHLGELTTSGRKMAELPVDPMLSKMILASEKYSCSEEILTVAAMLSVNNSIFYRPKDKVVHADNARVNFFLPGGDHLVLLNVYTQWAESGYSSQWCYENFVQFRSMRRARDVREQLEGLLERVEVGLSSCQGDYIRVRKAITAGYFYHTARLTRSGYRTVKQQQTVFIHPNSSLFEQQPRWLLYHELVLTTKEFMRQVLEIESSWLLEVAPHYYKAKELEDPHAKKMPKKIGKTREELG
UniProt Q96GQ7: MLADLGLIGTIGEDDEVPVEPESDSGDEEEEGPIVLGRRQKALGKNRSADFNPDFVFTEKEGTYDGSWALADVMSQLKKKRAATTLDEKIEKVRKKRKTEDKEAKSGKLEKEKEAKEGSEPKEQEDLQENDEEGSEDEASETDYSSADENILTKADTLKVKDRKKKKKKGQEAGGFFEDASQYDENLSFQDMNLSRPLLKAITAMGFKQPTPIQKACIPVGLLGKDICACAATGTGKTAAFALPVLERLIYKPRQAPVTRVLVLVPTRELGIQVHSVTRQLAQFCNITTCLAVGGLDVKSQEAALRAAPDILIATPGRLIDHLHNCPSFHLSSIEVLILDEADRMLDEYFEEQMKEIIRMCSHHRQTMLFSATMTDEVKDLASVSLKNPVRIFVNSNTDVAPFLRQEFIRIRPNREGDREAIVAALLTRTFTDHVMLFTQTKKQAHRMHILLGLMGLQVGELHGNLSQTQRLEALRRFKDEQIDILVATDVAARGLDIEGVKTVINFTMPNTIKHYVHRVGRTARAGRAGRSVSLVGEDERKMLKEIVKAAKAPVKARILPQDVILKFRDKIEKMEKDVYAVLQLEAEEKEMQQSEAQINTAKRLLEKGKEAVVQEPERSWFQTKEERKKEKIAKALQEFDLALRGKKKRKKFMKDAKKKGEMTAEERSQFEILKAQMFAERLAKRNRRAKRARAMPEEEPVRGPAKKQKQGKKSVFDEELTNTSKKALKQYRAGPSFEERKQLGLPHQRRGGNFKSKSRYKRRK
UniProt O00148, whole entry, looked up: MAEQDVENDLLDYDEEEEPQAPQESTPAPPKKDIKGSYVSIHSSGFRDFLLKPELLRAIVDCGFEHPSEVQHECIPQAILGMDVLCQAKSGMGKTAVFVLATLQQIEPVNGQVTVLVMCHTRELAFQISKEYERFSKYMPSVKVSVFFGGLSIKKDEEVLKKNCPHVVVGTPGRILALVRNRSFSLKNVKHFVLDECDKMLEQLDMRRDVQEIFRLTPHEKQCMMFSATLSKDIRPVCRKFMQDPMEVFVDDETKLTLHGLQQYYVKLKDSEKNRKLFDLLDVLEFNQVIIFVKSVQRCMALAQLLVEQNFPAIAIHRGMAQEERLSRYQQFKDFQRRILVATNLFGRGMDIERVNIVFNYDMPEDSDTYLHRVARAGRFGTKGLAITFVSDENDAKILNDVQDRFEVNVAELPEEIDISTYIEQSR
UniProt Q9UBM7: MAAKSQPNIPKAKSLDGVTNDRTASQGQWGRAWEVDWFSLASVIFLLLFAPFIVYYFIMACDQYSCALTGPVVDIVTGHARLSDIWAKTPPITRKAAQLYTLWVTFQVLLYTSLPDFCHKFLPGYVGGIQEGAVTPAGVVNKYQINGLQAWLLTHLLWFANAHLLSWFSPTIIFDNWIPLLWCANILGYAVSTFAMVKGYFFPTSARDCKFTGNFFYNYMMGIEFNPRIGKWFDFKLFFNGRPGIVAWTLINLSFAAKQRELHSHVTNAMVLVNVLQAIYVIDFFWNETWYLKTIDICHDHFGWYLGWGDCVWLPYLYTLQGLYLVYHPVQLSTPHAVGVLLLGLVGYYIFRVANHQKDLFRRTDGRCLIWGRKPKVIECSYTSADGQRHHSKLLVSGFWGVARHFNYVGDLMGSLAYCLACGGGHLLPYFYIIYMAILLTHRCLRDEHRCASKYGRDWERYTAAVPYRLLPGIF
UniProt Q92466: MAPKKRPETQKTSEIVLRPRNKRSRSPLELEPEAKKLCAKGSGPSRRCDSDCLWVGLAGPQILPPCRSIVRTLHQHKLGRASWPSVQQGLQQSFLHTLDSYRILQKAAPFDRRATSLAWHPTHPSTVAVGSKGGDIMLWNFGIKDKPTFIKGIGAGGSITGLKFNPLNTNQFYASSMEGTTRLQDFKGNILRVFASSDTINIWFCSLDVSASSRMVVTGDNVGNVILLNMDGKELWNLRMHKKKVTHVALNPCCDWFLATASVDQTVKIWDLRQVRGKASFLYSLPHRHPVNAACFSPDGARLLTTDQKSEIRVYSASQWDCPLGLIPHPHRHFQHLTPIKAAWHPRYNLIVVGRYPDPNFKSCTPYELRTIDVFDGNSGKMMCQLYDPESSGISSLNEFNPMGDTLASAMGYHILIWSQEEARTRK
UniProt Q8IX18: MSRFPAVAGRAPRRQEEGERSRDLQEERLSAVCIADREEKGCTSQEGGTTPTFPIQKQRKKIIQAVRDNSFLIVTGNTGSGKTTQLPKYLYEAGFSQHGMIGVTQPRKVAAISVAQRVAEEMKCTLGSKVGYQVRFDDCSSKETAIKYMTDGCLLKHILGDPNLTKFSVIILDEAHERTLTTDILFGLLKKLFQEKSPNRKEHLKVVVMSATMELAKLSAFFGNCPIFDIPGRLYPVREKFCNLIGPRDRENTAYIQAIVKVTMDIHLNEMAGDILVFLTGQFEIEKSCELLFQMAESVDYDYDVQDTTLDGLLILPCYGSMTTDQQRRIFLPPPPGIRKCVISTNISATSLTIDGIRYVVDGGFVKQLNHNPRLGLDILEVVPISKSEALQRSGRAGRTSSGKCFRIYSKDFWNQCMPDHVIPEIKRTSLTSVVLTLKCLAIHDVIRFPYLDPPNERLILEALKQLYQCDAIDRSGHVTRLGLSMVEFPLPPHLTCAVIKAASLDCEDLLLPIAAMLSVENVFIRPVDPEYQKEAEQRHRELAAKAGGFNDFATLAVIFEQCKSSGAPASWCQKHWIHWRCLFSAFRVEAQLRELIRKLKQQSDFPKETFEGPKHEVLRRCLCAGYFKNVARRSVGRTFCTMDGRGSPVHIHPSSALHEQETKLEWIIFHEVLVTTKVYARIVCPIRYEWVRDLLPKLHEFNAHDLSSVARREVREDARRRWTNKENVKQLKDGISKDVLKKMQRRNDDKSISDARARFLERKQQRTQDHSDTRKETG
UniProt Q9NUI1: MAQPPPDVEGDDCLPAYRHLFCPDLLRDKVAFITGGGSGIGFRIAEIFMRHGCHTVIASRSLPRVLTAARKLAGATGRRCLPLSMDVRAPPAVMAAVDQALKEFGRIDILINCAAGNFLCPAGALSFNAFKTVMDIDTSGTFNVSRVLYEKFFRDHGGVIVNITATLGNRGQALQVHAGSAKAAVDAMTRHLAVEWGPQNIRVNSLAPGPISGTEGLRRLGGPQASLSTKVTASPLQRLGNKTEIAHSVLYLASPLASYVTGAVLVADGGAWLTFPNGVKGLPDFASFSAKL
UniProt Q6IAN0: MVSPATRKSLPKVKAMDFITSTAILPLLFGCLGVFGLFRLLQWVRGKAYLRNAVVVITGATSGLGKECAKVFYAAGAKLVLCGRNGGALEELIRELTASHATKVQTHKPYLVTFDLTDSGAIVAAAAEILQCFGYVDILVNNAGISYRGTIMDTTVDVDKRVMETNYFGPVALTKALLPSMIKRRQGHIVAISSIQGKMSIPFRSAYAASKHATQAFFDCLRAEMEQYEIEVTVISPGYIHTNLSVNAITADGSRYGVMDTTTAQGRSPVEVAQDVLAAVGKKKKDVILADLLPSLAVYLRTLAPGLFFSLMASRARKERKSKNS

How the values were obtained:
Test in all cases: log2 fold change, soluble protein after heating vs DMSO (PISA); higher = thermal stabilisation; K562 cells, 10 uM, 30 min; active = over 0.2 and 3.5 SD of the protein, either way, in both replicates (recomputed)
[1] = compound: CS(=O)(=O)c1ccc(-c2cnc(N)c(C(=O)Nc3ccccc3)n2)cc1
Procedure, shortened: (§1)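 Thermal stability values are relative to control samples and come from duplicates. They are expressed as log2 fold changes. For measurement, K562 cells (2×10^6 cells/mL) received 10 μM compound for 30 min, and aliquots were heated for 3 min over 48°C-58°C, pooled, and extracted at 4°C in PBS with 0.5% NP-40. Soluble protein, the supernatant after 21,000xg for 90 min, was quantified by TMTpro 16plex LC-MS/MS with equalised channel sums.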

crizotinib = compound: C[C@@H](Oc1cc(-c2cnn(C3CCNCC3)c2)cnc1N)c1c(Cl)ccc(F)c1Cl [crizotinib]
Procedure, shortened: as §1

[2] = compound: C[C@@H]1COCCN1C2=NC(=NC(=C2)C3(CC3)S(=O)(=O)C)C4=C5C=CNC5=CC=C4
Procedure, shortened: as §1

[3] = compound: C[C@H](C1=CC=C(C=C1)C(=O)NC2=C3C=CNC3=NC=C2)N
Procedure, shortened: as §1

gandotinib = compound: Cc1cc(Nc2cc(CN3CCOCC3)c3nc(C)c(Cc4ccc(Cl)cc4F)n3n2)n[nH]1 [gandotinib]
Procedure, shortened: as §1

[4] = compound: Cc1cc(SCc2sc(-c3ccc(C(F)(F)F)cc3)nc2C)ccc1OCC(=O)O
Procedure, shortened: as §1

doramapimod = compound: Cc1ccc(-n2nc(C(C)(C)C)cc2NC(=O)Nc2ccc(OCCN3CCOCC3)c3ccccc23)cc1 [doramapimod]
Procedure, shortened: as §1

ispinesib = compound: Cc1ccc(C(=O)N(CCCN)[C@@H](c2nc3cc(Cl)ccc3c(=O)n2Cc2ccccc2)C(C)C)cc1 [ispinesib]
Procedure, shortened: as §1

bafetinib = compound: Cc1ccc(NC(=O)c2ccc(CN3CC[C@H](N(C)C)C3)c(C(F)(F)F)c2)cc1Nc1nccc(-c2cncnc2)n1 [bafetinib]
Procedure, shortened: as §1

[5] = compound: Cc1cccc(CC(=O)N2CCc3c2ccc(-c2cn(C)c4ncnc(N)c24)c3F)n1
Procedure, shortened: as §1

nilotinib = compound: Cc1cn(-c2cc(NC(=O)c3ccc(C)c(Nc4nccc(-c5cccnc5)n4)c3)cc(C(F)(F)F)c2)cn1 [nilotinib]
Procedure, shortened: as §1

[6] = compound: Cc1nc(Nc2n[nH]c3c2CN(C(=O)N[C@H](CN(C)C)c2ccccc2)C3(C)C)c2sccc2n1
Procedure, shortened: as §1

dasatinib = compound: Cc1nc(Nc2ncc(C(=O)Nc3c(C)cccc3Cl)s2)cc(N2CCN(CCO)CC2)n1 [dasatinib]
Procedure, shortened: as §1

[7] = compound: Cc1ncc(-c2ccnc(Nc3ccc(S(C)(=O)=O)cc3)n2)n1C(C)C
Procedure, shortened: as §1

[8] = compound: Cn1cc(-c2ccc3c(c2)CCN3C(=O)Cc2cccc(C(F)(F)F)c2)c2c(N)ncnc21
Procedure, shortened: as §1

[9] = compound: Cn1cc(-c2ccc3nnc(C(F)(F)c4ccc5ncccc5c4)n3n2)cn1
Procedure, shortened: as §1

tipifarnib = compound: Cn1cncc1[C@@](N)(c1ccc(Cl)cc1)c1ccc2c(c1)c(-c1cccc(Cl)c1)cc(=O)n2C [tipifarnib]
Procedure, shortened: as §1

mubritinib = compound: FC(F)(F)c1ccc(/C=C/c2nc(COc3ccc(CCCCn4ccnn4)cc3)co2)cc1 [mubritinib]
Procedure, shortened: as §1

duvelisib = compound: C[C@H](Nc1ncnc2nc[nH]c12)c1cc2cccc(Cl)c2c(=O)n1-c1ccccc1 [duvelisib]
Procedure, shortened: as §1

tozasertib = compound: Cc1cc(Nc2cc(N3CCN(C)CC3)nc(Sc3ccc(NC(=O)C4CC4)cc3)n2)n[nH]1 [tozasertib]
Procedure, shortened: as §1

Row | Target | log2 fold change [1] | log2 fold change (crizotinib) | log2 fold change [2] | log2 fold change [3] | log2 fold change (gandotinib) | log2 fold change [4] | log2 fold change (doramapimod) | log2 fold change (ispinesib) | log2 fold change (bafetinib) | log2 fold change [5] | log2 fold change (nilotinib) | log2 fold change [6] | log2 fold change (dasatinib) | log2 fold change [7] | log2 fold change [8] | log2 fold change [9] | log2 fold change (tipifarnib) | log2 fold change (mubritinib) | log2 fold change (duvelisib) | log2 fold change (tozasertib)
1 | DMXL1 (UniProt Q9Y485) | inactive: -0.012 | inactive: -0.092 | inactive: 0.002 | inactive: 0.048 | inactive: -0.013 | inactive: 0 | inactive: 0.047 | inactive: -0.217 | inactive: -0.14 | inactive: -0.034 | inactive: -0.002 | inactive: 0.018 | inactive: -0.099 | inactive: -0.012 | inactive: 0.021 | inactive: 0.021 | inactive: -0.035 | inactive: -0.053 |  | 
2 | DHRS3 (UniProt O75911) | inactive: 0.083 | inactive: 0.093 | inactive: 0.115 | inactive: 0.069 | inactive: -0.027 | inactive: -0.049 | inactive: -0.037 | inactive: 0.015 | inactive: 0.027 | inactive: 0.017 | inactive: 0.101 | inactive: -0.031 | inactive: 0.188 | inactive: -0.025 | active: 0.323 | inactive: 0.164 | inactive: 0.012 | inactive: 0.081 |  | 
3 | DDX18 (UniProt Q9NVP1) | inactive: 0.035 | inactive: 0.214 |  | inactive: 0.215 | inactive: 0.082 | inactive: -0.125 | inactive: 0.011 |  |  | inactive: -0.063 |  |  | inactive: 0.183 |  | inactive: -0.128 |  |  | inactive: 0.363 | inactive: -0.002 | inactive: 0.032
4 | DNAH10 (UniProt Q8IVF4) | inactive: 0.124 | inactive: 0.135 | inactive: -0.003 | inactive: -0.055 | inactive: -0.136 | inactive: -0.082 | inactive: -0.003 |  | inactive: 0.062 | inactive: -0.052 | inactive: -0.092 | inactive: 0.037 | inactive: 0.093 | inactive: 0.043 | inactive: 0.102 |  |  | inactive: 0.154 |  | 
5 | DMAC1 (UniProt Q96GE9) | inactive: 0.023 | inactive: 0.034 | inactive: 0.037 | inactive: 0.005 | inactive: -0.087 | inactive: -0.22 | inactive: 0.066 | inactive: -0.108 | inactive: -0.138 | inactive: -0.047 | inactive: -0.083 | inactive: 0.067 | inactive: 0.118 | inactive: -0.007 | inactive: -0.014 | inactive: 0.095 | inactive: -0.156 | inactive: 0.085 |  | 
6 | DHCR24 (UniProt Q15392) | inactive: 0.229 | inactive: 0.428 | inactive: 0.076 | inactive: 0.056 | inactive: -0.025 | inactive: -0.063 | active: 0.982 | inactive: -0.053 | active: 1.39 | inactive: -0.001 | inactive: -0.03 | inactive: 0.025 | inactive: 0.127 | inactive: 0.577 | inactive: 0.292 | inactive: 0.043 | inactive: -0.006 | inactive: 0.47 |  | 
7 | DHPS (UniProt P49366) | inactive: 0.015 | inactive: -0.008 | inactive: 0.043 | inactive: -0.047 | inactive: 0.032 | inactive: -0.054 | inactive: 0.051 | inactive: 0.067 | inactive: 0.026 | inactive: -0.057 | inactive: 0.035 | inactive: 0.001 | inactive: 0.014 | inactive: 0.004 | inactive: 0.008 | inactive: -0.005 | inactive: -0.047 | inactive: 0.061 |  | 
8 | DESI2 (UniProt Q9BSY9) | inactive: -0.112 | inactive: -0.022 |  |  |  |  | inactive: -0.04 |  | inactive: -0.025 |  | inactive: -0.078 | inactive: -0.023 |  | inactive: 0.073 |  |  | inactive: 0.044 |  |  | inactive: -0.048
9 | DHX16 (UniProt O60231) | inactive: 0.023 | inactive: -0.013 | inactive: 0.182 | inactive: -0.03 | inactive: -0.06 | inactive: 0.053 | inactive: -0.018 | inactive: -0.01 | inactive: 0.001 | inactive: 0.044 | inactive: -0.031 | inactive: 0.019 | inactive: -0.095 | inactive: -0.006 | inactive: 0.059 | inactive: 0.002 | inactive: -0.04 | inactive: 0.147 |  | 
10 | DIPK2A (UniProt Q8NDZ4) | inactive: -0.01 | inactive: -0.054 |  | inactive: 0.168 |  | inactive: -0.017 | inactive: -0.043 | inactive: 0.067 | inactive: 0.073 |  | inactive: -0.013 | inactive: -0.238 | inactive: 0.151 | inactive: 0.123 | inactive: 0.01 | inactive: 0.019 |  |  | inactive: 0.068 | inactive: 0.058
11 | DDX27 (UniProt Q96GQ7) | inactive: -0.039 | inactive: -0.037 | inactive: -0.064 | inactive: 0.37 | inactive: 0.073 | inactive: 0.071 | inactive: 0.135 | inactive: 0.004 |  | inactive: -0.093 | inactive: -0.193 | inactive: -0.051 | inactive: 0.21 | inactive: 0.3 | inactive: -0.313 | inactive: -0.151 |  | inactive: -0.146 |  | 
12 | DDX39A (UniProt O00148) | inactive: 0.062 | inactive: -0.082 | inactive: 0.079 | inactive: 0.002 | inactive: -0.009 | inactive: 0.05 | inactive: -0.069 | inactive: -0.064 | inactive: 0.001 | inactive: 0.014 | inactive: -0.017 | active: -0.278 | inactive: -0.134 | inactive: -0.218 | inactive: -0.018 | inactive: -0.007 | inactive: 0.079 | inactive: -0.182 |  | 
13 | DHCR7 (UniProt Q9UBM7) | inactive: -0.003 | inactive: 0.192 | inactive: -0.085 | inactive: 0.089 | inactive: -0.304 | inactive: 0.051 | inactive: 0.049 | inactive: -0.056 | active: 0.428 | inactive: -0.005 | inactive: -0.282 | inactive: -0.005 | inactive: -0.109 | inactive: 0.05 | inactive: 0.257 | inactive: -0.016 | inactive: -0.167 | inactive: 0.166 |  | 
14 | DDB2 (UniProt Q92466) | inactive: -0.037 |  | inactive: -0.174 | inactive: 0.059 | inactive: 0.151 | inactive: -0.073 |  | inactive: -0.048 | inactive: -0.343 | inactive: -0.066 | inactive: 0.003 | inactive: 0.057 | inactive: 0.056 | inactive: 0.007 | inactive: 0.01 | inactive: -0.064 | inactive: 0.156 | inactive: 0.054 | inactive: -0.021 | inactive: 0.012
15 | DHX40 (UniProt Q8IX18) | inactive: 0.018 | inactive: -0.109 | inactive: -0.003 | inactive: 0.03 | inactive: -0.079 | inactive: 0.01 | inactive: 0.065 | inactive: -0.215 | inactive: -0.033 | inactive: 0.038 | inactive: -0.052 | active: -0.289 | inactive: -0.229 | inactive: 0.118 | inactive: 0.103 | inactive: 0.035 | inactive: 0.017 | inactive: 0.084 |  | 
16 | DECR2 (UniProt Q9NUI1) | inactive: -0.027 | inactive: -0.089 | inactive: 0.062 |  | inactive: 0.049 | inactive: 0.097 | inactive: 0.05 |  | inactive: -0.04 | inactive: -0.116 | inactive: -0.095 | inactive: 0.012 | inactive: -0.03 | inactive: -0.07 |  |  | inactive: 0.056 | inactive: -0.14 | inactive: 0.023 | inactive: -0.071
17 | DHRS7B (UniProt Q6IAN0) | inactive: 0.066 | inactive: 0.194 | inactive: 0.003 | inactive: -0.08 | inactive: -0.232 | inactive: 0.105 | inactive: -0.006 | active: 0.367 | inactive: 0.001 | inactive: 0.213 | inactive: 0.114 | inactive: 0.01 | inactive: -0.066 | inactive: 0.056 | inactive: 0.047 | inactive: -0.113 | inactive: 0.008 | inactive: -0.023 |  | 
18 | DDX5 (UniProt P17844) | inactive: 0.035 | inactive: -0.16 | inactive: 0.135 | inactive: 0.125 | inactive: -0.016 | inactive: 0.165 | inactive: -0.044 | inactive: 0.052 | inactive: 0.272 | inactive: 0.018 | inactive: 0.166 | inactive: -0.092 | inactive: -0.19 | inactive: 0.076 | inactive: 0.029 | inactive: 0.046 | inactive: -0.155 | inactive: 0.326 |  | 
19 | DDX46 (UniProt Q7L014) | inactive: 0.12 | inactive: 0.1 | inactive: 0.185 | inactive: -0.025 | inactive: -0.144 | inactive: 0.235 | inactive: -0.087 | inactive: 0.197 | inactive: 0.196 | inactive: 0.094 | inactive: 0.271 | active: -1.44 | inactive: -0.084 | inactive: 0.1 | inactive: 0.104 | inactive: 0.102 | inactive: -0.113 | active: 0.604 |  | 

A second format for part of the listing above.
Row,Target,log2 fold change [1],log2 fold change (crizotinib),log2 fold change [2],log2 fold change [3],log2 fold change (gandotinib),log2 fold change [4],log2 fold change (doramapimod),log2 fold change (ispinesib),log2 fold change (bafetinib),log2 fold change [5],log2 fold change (nilotinib),log2 fold change [6],log2 fold change (dasatinib),log2 fold change [7],log2 fold change [8],log2 fold change [9],log2 fold change (tipifarnib),log2 fold change (mubritinib),log2 fold change (duvelisib),log2 fold change (tozasertib)
8,DESI2 (UniProt Q9BSY9),inactive: -0.112,inactive: -0.022,,,,,inactive: -0.04,,inactive: -0.025,,inactive: -0.078,inactive: -0.023,,inactive: 0.073,,,inactive: 0.044,,,inactive: -0.048
9,DHX16 (UniProt O60231),inactive: 0.023,inactive: -0.013,inactive: 0.182,inactive: -0.03,inactive: -0.06,inactive: 0.053,inactive: -0.018,inactive: -0.01,inactive: 0.001,inactive: 0.044,inactive: -0.031,inactive: 0.019,inactive: -0.095,inactive: -0.006,inactive: 0.059,inactive: 0.002,inactive: -0.04,inactive: 0.147,,
